This note sets out measurements from publication PMC10079682.

Protein sequences, listed by entry. Tags and fused reporters are not part of them. Residues count along the entry.
UniProt Q9NZQ7, residues 19-290: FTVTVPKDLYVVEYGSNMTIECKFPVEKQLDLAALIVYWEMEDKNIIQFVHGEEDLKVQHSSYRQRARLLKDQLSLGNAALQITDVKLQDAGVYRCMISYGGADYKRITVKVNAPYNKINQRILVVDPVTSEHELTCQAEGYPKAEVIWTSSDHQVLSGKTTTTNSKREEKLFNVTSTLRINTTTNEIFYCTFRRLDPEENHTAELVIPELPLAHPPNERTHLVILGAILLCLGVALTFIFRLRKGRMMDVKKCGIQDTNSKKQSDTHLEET
UniProt Q9Y4B6: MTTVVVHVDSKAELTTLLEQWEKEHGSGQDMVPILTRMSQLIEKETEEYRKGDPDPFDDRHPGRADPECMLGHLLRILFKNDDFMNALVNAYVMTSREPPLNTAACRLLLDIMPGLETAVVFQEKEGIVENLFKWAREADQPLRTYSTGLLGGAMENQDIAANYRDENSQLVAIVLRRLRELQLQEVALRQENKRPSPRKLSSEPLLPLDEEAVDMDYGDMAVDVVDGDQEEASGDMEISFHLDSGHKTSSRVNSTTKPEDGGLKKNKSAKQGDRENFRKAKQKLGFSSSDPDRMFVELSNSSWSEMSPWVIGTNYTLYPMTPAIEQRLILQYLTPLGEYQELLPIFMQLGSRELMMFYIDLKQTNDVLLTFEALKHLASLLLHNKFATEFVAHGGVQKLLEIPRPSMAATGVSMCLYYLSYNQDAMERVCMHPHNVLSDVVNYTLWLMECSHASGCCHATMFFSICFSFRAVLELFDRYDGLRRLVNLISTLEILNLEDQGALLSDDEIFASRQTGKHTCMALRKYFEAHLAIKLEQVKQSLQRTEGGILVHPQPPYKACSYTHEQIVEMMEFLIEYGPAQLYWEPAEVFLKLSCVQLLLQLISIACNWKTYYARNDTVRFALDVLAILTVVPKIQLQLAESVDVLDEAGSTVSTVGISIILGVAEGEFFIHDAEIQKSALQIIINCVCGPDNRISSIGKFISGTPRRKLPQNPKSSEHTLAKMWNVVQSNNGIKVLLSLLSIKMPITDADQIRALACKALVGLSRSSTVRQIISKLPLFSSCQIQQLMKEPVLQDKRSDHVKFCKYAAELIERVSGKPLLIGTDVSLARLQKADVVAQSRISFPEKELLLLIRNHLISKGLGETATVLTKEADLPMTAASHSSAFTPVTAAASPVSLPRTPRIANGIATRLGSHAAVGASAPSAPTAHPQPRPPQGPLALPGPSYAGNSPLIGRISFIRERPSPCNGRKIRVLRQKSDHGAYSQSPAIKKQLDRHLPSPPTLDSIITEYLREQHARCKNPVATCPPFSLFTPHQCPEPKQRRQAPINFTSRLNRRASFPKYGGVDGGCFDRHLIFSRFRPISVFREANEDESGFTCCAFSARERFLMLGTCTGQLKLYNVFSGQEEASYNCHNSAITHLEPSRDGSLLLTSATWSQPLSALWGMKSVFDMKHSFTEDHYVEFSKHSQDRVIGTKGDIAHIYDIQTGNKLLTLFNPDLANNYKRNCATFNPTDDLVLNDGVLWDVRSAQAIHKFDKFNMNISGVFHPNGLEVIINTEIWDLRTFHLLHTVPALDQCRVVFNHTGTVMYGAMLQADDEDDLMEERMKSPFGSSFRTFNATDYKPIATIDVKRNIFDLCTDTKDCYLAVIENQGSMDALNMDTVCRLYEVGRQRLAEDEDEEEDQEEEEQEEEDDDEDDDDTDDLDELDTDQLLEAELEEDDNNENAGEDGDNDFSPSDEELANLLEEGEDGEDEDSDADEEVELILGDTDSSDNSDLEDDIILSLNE

Experiment [1] has as its target T1, GST-fusion protein containing full-length IRF1 (UniProt P10914).
T1 sequence: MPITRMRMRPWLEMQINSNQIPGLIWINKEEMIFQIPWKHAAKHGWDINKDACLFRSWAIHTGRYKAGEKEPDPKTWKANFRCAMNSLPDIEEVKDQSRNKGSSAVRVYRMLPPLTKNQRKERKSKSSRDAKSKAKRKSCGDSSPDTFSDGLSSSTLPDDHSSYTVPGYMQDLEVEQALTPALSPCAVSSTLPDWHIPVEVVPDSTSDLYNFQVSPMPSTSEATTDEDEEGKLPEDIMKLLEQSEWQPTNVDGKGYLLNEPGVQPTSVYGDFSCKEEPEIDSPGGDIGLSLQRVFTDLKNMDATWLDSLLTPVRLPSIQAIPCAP
The experiment can be described thus: pull-down; GST or GST-fused protein (E. coli) and purified F-VPRBP protein incubated with GST resin overnight at 4 °C; 5 washes with BC100 buffer; western blot; both purified.

The target of experiment [2] is T2, purified GST-USP2 fusion protein (UniProt O75604).
T2 sequence: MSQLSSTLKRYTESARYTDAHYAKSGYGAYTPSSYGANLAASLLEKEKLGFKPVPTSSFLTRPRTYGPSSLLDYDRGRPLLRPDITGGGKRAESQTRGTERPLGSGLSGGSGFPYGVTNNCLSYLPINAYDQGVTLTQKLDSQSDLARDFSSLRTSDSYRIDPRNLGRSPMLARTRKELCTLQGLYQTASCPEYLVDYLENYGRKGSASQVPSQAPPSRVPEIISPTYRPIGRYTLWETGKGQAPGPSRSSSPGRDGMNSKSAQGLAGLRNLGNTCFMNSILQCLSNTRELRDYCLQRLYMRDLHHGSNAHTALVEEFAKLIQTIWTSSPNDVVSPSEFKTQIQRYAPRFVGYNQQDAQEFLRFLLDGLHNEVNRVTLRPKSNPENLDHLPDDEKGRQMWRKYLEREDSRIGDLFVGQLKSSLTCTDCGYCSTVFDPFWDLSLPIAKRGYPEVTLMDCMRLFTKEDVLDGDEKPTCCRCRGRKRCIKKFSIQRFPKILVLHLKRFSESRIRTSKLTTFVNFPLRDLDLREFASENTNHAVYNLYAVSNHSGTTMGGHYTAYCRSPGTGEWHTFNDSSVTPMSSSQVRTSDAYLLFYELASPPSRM
Described as above.

Experiment [3] has as its target C-terminal tagged PD-L1 (PD-L1-SFB) (human) (UniProt Q9NZQ7). In words: co-IP; H1299 cells transfected with both constructs; whole cell extracts in BC100 buffer; SFB-tagged bait on streptavidin beads overnight at 4 °C; western blot.
Experiment [4] concerns the target T3, FLAG-HA-tagged USP2 (UniProt O75604).
T3 sequence: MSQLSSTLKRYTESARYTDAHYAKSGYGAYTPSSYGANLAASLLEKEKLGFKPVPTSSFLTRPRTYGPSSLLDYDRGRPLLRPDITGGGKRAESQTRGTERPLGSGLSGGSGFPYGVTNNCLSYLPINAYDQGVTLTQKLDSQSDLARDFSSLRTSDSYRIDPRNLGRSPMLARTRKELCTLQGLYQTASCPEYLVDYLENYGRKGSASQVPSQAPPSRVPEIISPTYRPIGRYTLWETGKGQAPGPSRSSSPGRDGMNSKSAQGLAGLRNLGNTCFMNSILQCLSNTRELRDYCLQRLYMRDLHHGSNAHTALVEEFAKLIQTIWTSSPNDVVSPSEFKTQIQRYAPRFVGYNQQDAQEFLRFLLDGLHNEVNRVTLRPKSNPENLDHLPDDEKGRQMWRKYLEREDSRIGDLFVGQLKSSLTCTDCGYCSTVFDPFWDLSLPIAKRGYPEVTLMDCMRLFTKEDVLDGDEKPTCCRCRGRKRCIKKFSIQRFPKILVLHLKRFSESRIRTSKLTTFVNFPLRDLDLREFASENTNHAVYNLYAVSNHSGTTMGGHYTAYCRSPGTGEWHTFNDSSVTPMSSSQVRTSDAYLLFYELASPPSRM
The experiment can be described thus: co-IP; H1299 cells transfected with Myc-VPRBP alone or with FH-USP2; IP of FH-USP2 with HA beads; western blot.

Experiment [5] has as its target T4, SFB-tagged IRF1 (UniProt P10914).
T4 sequence: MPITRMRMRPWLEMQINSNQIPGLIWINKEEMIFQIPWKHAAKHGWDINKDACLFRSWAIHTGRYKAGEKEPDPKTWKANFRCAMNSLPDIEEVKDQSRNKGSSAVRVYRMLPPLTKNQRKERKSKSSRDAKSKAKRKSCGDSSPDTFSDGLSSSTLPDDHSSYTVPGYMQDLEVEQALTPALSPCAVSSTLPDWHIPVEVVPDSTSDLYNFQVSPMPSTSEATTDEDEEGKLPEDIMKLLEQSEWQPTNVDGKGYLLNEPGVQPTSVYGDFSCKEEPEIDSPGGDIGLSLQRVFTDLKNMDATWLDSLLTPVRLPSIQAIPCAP
In words: co-IP; H1299 cells transfected with both constructs; whole cell extracts in BC100 buffer; SFB-tagged bait on streptavidin beads overnight at 4 °C; western blot.

Experiment [6] has as its target endogenous VPRBP (human (endogenous in H1299, A549, HEK293, MDA-MB-231, A375)) (UniProt Q9Y4B6). In words: co-IP; endogenous proteins, MDA-MB-231 cells (Fig. 3d, lower panel, by the legend); IP with a specific antibody or control IgG; western blot.
Experiment [7] has as its target T5, endogenous IRF1 (human (endogenous in H1299, A549, HEK293)) (UniProt P10914).
T5 sequence: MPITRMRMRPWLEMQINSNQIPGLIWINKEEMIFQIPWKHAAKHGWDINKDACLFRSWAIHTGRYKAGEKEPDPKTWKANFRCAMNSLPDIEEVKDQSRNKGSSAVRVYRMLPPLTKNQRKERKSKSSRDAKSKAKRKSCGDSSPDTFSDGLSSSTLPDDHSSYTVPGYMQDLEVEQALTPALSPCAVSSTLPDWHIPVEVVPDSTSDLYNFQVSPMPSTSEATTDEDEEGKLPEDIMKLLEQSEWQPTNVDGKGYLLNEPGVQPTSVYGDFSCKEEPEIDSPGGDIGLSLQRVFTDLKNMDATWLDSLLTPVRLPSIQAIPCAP
The experiment can be described thus: co-IP; endogenous proteins from H1299 cells; IP with a specific antibody or control IgG; western blot.

For experiment [8], the target named is endogenous PD-L1 (human (endogenous in H1299, MDA-MB-231)) (UniProt Q9NZQ7). Described as above.
Experiment [9] addresses T6, SFB-tagged-USP2 protein (UniProt O75604).
T6 sequence: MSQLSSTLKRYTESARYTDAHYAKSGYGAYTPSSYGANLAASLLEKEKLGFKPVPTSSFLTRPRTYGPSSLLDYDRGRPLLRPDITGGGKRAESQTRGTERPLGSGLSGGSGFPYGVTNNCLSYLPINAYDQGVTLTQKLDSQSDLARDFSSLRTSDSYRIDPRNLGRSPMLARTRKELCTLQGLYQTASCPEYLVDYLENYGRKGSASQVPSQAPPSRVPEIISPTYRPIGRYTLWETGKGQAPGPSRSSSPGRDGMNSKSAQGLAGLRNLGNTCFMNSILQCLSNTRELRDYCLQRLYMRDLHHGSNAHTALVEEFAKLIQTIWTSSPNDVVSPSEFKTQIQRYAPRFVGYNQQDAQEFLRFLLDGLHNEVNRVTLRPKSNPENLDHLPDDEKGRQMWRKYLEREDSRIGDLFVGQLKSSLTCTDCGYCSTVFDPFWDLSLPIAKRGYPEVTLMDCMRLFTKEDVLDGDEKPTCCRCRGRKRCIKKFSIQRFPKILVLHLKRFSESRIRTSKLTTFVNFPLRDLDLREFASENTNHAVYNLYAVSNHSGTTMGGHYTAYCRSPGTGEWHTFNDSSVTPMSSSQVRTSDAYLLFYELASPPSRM
In words: co-IP; protein complexes of SFB-tagged USP2 purified from 293 cells; western blot (Supplementary Fig. 8d).

The target of experiment [10] is T7, endogenous USP2 (human (endogenous in A375)) (UniProt O75604).
T7 sequence: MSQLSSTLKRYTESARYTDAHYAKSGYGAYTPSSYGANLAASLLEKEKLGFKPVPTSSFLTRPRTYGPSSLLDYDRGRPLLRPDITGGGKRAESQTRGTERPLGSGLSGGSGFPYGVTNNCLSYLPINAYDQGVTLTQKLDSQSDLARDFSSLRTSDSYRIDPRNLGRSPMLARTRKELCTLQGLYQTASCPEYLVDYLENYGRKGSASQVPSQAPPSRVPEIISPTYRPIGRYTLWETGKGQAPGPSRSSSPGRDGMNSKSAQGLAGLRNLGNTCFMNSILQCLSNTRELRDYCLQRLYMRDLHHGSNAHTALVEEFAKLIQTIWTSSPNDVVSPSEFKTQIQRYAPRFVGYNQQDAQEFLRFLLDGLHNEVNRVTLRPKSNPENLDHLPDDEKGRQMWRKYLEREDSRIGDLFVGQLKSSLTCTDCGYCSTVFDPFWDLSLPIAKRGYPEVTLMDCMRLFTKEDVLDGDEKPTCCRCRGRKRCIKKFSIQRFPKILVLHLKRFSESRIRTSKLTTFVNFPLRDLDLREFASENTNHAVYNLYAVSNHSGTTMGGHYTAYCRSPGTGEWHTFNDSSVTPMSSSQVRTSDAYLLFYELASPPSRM
In words: co-IP; endogenous proteins, A375 cell extracts; IP of endogenous USP2 or control IgG; western blot for VPRBP.

Experiment [11] addresses SFB-tagged VPRBP (human) (UniProt Q9Y4B6). The experiment can be described thus: co-IP; H1299 cells transfected with both constructs; whole cell extracts in BC100 buffer; SFB-tagged bait on streptavidin beads overnight at 4 °C; western blot.
In experiment [12] the target is endogenous VPRBP (human (endogenous in H1299, A549, HEK293, MDA-MB-231, A375)) (UniProt Q9Y4B6). In words: co-IP; endogenous proteins, A549 cells (Supplementary Fig. 4b, c).
The target is the same in experiment [13]. In words: co-IP; endogenous proteins, HEK293 cells (Supplementary Fig. 4b, c).
The target is the same in experiment [14]. The experiment can be described thus: co-IP; endogenous proteins from H1299 cells; IP with a specific antibody or control IgG; western blot.

No constants are given. Whether binding was seen depends on the method and setting. For some assays here: Binding seen in cells or lysates may run through a third protein. Some binding calls cover weakened binding; strength is not graded here. For some assays here: Tags and fused reporters may be left off the sequences shown.

Regarding “purified Flag-VPRBP (from UniProt Q9Y4B6 1-1507)”, the binding result in experiment [1] and in [2] was “binds” each time.

Consider “Flag-tagged VPRBP (from UniProt Q9Y4B6 1-1507)”, for which, in [3], the binding result is reported as “binds”.

“Myc-tagged VPRBP (from UniProt Q9Y4B6 1-1507)”: the binding result in experiment [4] and in experiment [5] was “binds” each time.

Take “endogenous PD-L1 (from UniProt Q9NZQ7 19-290)”: the binding result in experiment [6] was “binds”.

As for “endogenous VPRBP (from UniProt Q9Y4B6 1-1507)”, the binding result in experiment [7], in experiment [8], in experiment [9] and in experiment [10] was “binds” each time.

B1: Flag-tagged IRF1 (protein, UniProt P10914 1-325)
chain: MPITRMRMRPWLEMQINSNQIPGLIWINKEEMIFQIPWKHAAKHGWDINKDACLFRSWAIHTGRYKAGEKEPDPKTWKANFRCAMNSLPDIEEVKDQSRNKGSSAVRVYRMLPPLTKNQRKERKSKSSRDAKSKAKRKSCGDSSPDTFSDGLSSSTLPDDHSSYTVPGYMQDLEVEQALTPALSPCAVSSTLPDWHIPVEVVPDSTSDLYNFQVSPMPSTSEATTDEDEEGKLPEDIMKLLEQSEWQPTNVDGKGYLLNEPGVQPTSVYGDFSCKEEPEIDSPGGDIGLSLQRVFTDLKNMDATWLDSLLTPVRLPSIQAIPCAP
Regarding B1, the binding entry in [11] is on record as “binds”.

B2: endogenous IRF1 (protein, UniProt P10914 1-325)
chain: MPITRMRMRPWLEMQINSNQIPGLIWINKEEMIFQIPWKHAAKHGWDINKDACLFRSWAIHTGRYKAGEKEPDPKTWKANFRCAMNSLPDIEEVKDQSRNKGSSAVRVYRMLPPLTKNQRKERKSKSSRDAKSKAKRKSCGDSSPDTFSDGLSSSTLPDDHSSYTVPGYMQDLEVEQALTPALSPCAVSSTLPDWHIPVEVVPDSTSDLYNFQVSPMPSTSEATTDEDEEGKLPEDIMKLLEQSEWQPTNVDGKGYLLNEPGVQPTSVYGDFSCKEEPEIDSPGGDIGLSLQRVFTDLKNMDATWLDSLLTPVRLPSIQAIPCAP
On to B2, for which the binding entry in experiment [12], in [13] and in [14] was “binds” throughout.
